# Assay results published in PubChem BioAssay AID445 (National Center for Advancing Translational Sciences (NCATS), 2006).
# Some of the results follow. These are further read-outs of the screen, such as a control signal, another cell line or another target. No call is given for them. Compounds called inactive in the main read-out are mostly missing here. Potencies come from curve fits of mixed quality, noted in brackets.
# Assay: IkB Signaling
# Settings: ABC-DLBCL IkBa-CBG/CBR dual luciferase ratio (green luciferase fused to IkBa over red control in OCI-Ly3 lymphoma cells), 4 h
# Outline: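 In this assay, an IκBα–CBG68 fusion accumulates when IKK-driven degradation is blocked; native CBR normalizes for cell number. OCI-Ly3 cells were treated 4 h with compound and doxycycline, then green and red light read after Chroma-Glo addition.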
# [1] = measured here: control luc red channel unless noted
compound,measurement,setting,value
Cc1ccc(NC(=O)CN2C(=O)c3ccccc3Sc3ccc(C(=O)N4CCOCC4)cc32)cc1C,AC50,[1],"7.94 µM [falling, full curve]"
CC1CCN(C(=O)c2ccc(C(=O)N3CCC(C)CC3)cc2)CC1,AC50,[1],"158 nM [rising, full curve, poor fit] [measured here: IkB-luc green channel]"
O=C1Nc2ccccc2C1Cc1ccc(Br)cc1 (configuration not stated),AC50,[1],"3.98 µM [rising, partial curve, poor fit]"
Oc1ccccc1Cn1c(-c2ccccc2O)nc2ccccc21,AC50,[1],"20 µM [falling, partial curve]"
Cc1ccccc1OCCSc1nc2ccc(NC(=O)c3ccco3)cc2s1,AC50,[1],"31.6 µM [falling, single point]"
O=C(CSc1nc(=O)n(Cc2ccccn2)c2c1CCC2)Nc1cccc(Cl)c1,AC50,[1],"25.1 µM [falling, partial curve]"
COCCNC(=O)CSc1nc(-c2ccc(C)cc2)[nH]c1-c1ccc(OC)cc1,AC50,[1],"31.6 µM [falling, single point]"
O=C(Nc1ccc(Cl)cc1F)c1cc(S(=O)(=O)NC2CCCCCC2)ccc1F,AC50,[1],"0.794 µM [falling, full curve]"
Cc1cccc(NC(=O)c2oc3ccccc3c2NC(=O)Cc2coc3cc(C)cc(C)c23)c1,AC50,[1],"15.8 µM [falling, single point]"
Cc1ccccc1OCC(=O)Nc1ccccc1C(=O)OCc1cc(=O)n2nc(C3CC3)sc2n1,AC50,[1],"2.51 µM [falling, full curve]"
Cc1nc2ncnn2c(C)c1CCC(=O)NC(C)c1ccc2c(c1)OCCO2 (configuration not stated),AC50,[1],"5.01 µM [falling, partial curve]"
COc1ccc(Cl)cc1NC(=O)CSc1nc(=O)[nH]c2c1CCC2,AC50,[1],"39.8 µM [falling, single point]"
COc1cccc(NC(=O)CSc2nnc(-c3cc(-c4ccccn4)nc4ccccc34)o2)c1,AC50,[1],"10 µM [falling, partial curve]"
Cc1cc(NC(=O)c2cc(-c3ccc(F)cc3)on2)nn1Cc1ccc(Cl)cc1,AC50,[1],"6.31 µM [falling, partial curve]"
Cc1ccc2c(CC(=O)Nc3ccc(S(=O)(=O)N4CCCC(C)C4)cc3)coc2c1 (configuration not stated),AC50,[1],"25.1 µM [falling, partial curve]"
O=c1cc(-c2ccc(Cl)cc2)[nH][nH]1,AC50,[1],"3.98 µM [falling, partial curve]"
OC(c1ccccc1)c1nc2ccccc2n1Cc1c(F)cccc1Cl (configuration not stated),AC50,[1],"25.1 µM [falling, single point]"
COc1ccccc1C1C(C(=O)Nc2ccccc2)=C(C)Nc2nc(-c3ccccc3)nn21 (configuration not stated),AC50,[1],"20 µM [falling, partial curve]"
CC(=O)N1CCc2cc(S(=O)(=O)NC(Cc3ccccc3)C(=O)Nc3cc(C)cc(C)c3)ccc21 (configuration not stated),AC50,[1],"10 µM [falling, partial curve]"
CC1CCCCN1CCCNC(=O)Cn1ncc2c3ccccc3n(Cc3ccccc3)c2c1=O (configuration not stated),AC50,[1],"7.94 µM [falling, partial curve]"
COc1ccccc1N1CCN(Cc2nc(-c3cc(OC)c(OC)c(OC)c3)no2)CC1,AC50,[1],"20 µM [falling, single point]"
Cc1ccc(Cl)cc1N1CCN(C(=O)CCc2nnc3n(C)c(=O)c4ccccc4n23)CC1,AC50,[1],"20 µM [falling, partial curve]"
COc1ccc(CCN2C(=O)CN(C3CCCCCC3)C(=O)C2c2ccc(Cl)cc2)cc1OC (configuration not stated),AC50,[1],"12.6 µM [falling, partial curve]"
COc1ccccc1NC(=O)CSc1nnc(Cc2cccn2C)n1-c1ccc(F)cc1,AC50,[1],"15.8 µM [falling, partial curve]"
O=C(Cn1ncc2c3ccccc3n(Cc3ccccc3)c2c1=O)NCCCN1CCCCC1,AC50,[1],"20 µM [falling, single point]"
CC1CN(C(=O)N2CCC(C(=O)NCc3ccco3)CC2)c2ccccc2O1 (configuration not stated),AC50,[1],"12.6 µM [falling, partial curve]"
CC1CCN(c2nc3ccccc3nc2C(F)(F)F)CC1,AC50,[1],"7.94 µM [rising, partial curve]"
Cc1ccc2ncc(C(=O)c3ccc(C)c(C)c3)c(S(=O)(=O)c3ccccc3)c2c1,AC50,[1],"2.51 µM [falling, full curve]"
COc1ccc(Cl)cc1C(=O)CSc1nc(N)cc(N)n1,AC50,[1],"12.6 µM [falling, partial curve]"
Cc1cccc(CN2C(=O)c3ccccc3Sc3ccc(C(=O)NCCCN4CCOCC4)cc32)c1,AC50,[1],"15.8 µM [falling, partial curve]"
Cc1[nH]c2ccccc2c1Cc1nnc(SCC(=O)NCc2ccco2)o1,AC50,[1],"15.8 µM [rising, partial curve] [measured here: IkB-luc green channel]"
Cc1ccc(-c2nc(CS(=O)(=O)CC(=O)N3CCN(c4ccccc4)CC3)c(C)o2)cc1,AC50,[1],"20 µM [falling, partial curve]"
COc1cc(Br)cc2cc(S(=O)(=O)c3ccccc3)c(=O)oc12,AC50,[1],"3.98 µM [falling, full curve]"
CCc1cccc(C)c1Nc1c(-c2ccc(N(C)C)cc2)nc2cnccn12,AC50,[1],"20 µM [falling, partial curve]"
Cc1ccc(-n2nc(C)c3c(C)c(CCC(=O)NCc4ccc(Cl)cc4)c(C)nc32)cc1,AC50,[1],"10 µM [falling, partial curve]"
Cc1cc(NC(=O)c2cc(-c3ccccc3)on2)n(-c2ccccc2)n1,AC50,[1],"15.8 µM [falling, partial curve]"
CCc1ccc(C(=O)c2cn(CC(=O)Nc3cc(OC)cc(OC)c3)c3ccc(CC)cc3c2=O)cc1,AC50,[1],"39.8 µM [falling, partial curve]"
COc1ccc(-c2cc(C(=O)Oc3ccc(C#N)cc3)no2)cc1,AC50,[1],"0.00631 µM [rising, full curve, poor fit]"
Cc1ccsc1-c1nc(CSCC(=O)NCc2ccc3c(c2)OCO3)c(C)o1,AC50,[1],"25.1 µM [falling, single point]"
O=S1(=O)c2ccccc2N(Cc2ccc(F)cc2)c2ccccc21,AC50,[1],"12.6 µM [falling, partial curve]"
O=C(Nc1cc(Cl)cc(Cl)c1)c1cc(S(=O)(=O)N2CCc3ccccc3C2)ccc1F,AC50,[1],"20 µM [falling, partial curve]"
Cn1cccc1-c1nc2ccc(NC(=O)c3ccco3)cc2[nH]1,AC50,[1],"20 µM [falling, partial curve]"
CCOC(=O)c1cccc(NC(=O)C2CCCN(c3nnc(C)c4c(C)n(-c5ccccc5)nc34)C2)c1 (configuration not stated),AC50,[1],"12.6 µM [falling, partial curve]"
COc1ccc(OC)c(C2C(C(=O)Nc3ccccc3OC)=C(C)Nc3c(C(=O)Nc4ccc(F)cc4)cnn32)c1 (configuration not stated),AC50,[1],"15.8 µM [falling, partial curve]"
CC(Nc1ccc(Br)cn1)c1cc(Cl)ccc1O (configuration not stated),AC50,[1],"25.1 µM [falling, partial curve]"
O=C(CSc1nnc(-c2cnccn2)n1Cc1ccco1)c1ccc2ccccc2c1,AC50,[1],"15.8 µM [falling, partial curve]"
COc1ccc(NS(=O)(=O)c2ccc3oc(Nc4ccc5c(c4)OCCO5)nc3c2)cc1,AC50,[1],"12.6 µM [falling, partial curve]"
O=C(CSC1=NCCN1)NC12CC3CC(CC(C3)C1)C2,AC50,[1],"39.8 µM [rising, single point] [measured here: IkB-luc green channel]"
CCOC(=O)c1ccc(NS(=O)(=O)c2cc(Br)cc3c2N(C(C)=O)C(C)C3)cc1 (configuration not stated),AC50,[1],"6.31 µM [falling, partial curve]"
CCc1nnc(NC(=O)C2Cc3ccccc3CN2S(=O)(=O)c2cccs2)s1 (configuration not stated),AC50,[1],"39.8 µM [falling, single point]"
COc1ccc(CNC(=O)c2cc(-c3ccc(C)c(C)c3)n[nH]2)cc1,AC50,[1],"25.1 µM [falling, partial curve]"
CCN(C(=O)c1cc(S(=O)(=O)N2CCc3ccccc32)cn1C)c1cccc(C)c1,AC50,[1],"10 µM [falling, partial curve]"
O=C(Nc1ccc(-c2nc3cccnc3s2)cc1)c1ccco1,AC50,measured here: IkB-luc green channel,"39.8 µM [rising, single point]"
same,AC50,measured here: control luc red channel,"10 µM [falling, partial curve]"
Cc1ccc2c(=O)c(C(=O)c3ccc(F)cc3)cn(CC(=O)NCc3ccccc3Cl)c2n1,AC50,[1],"1 µM [falling, full curve, poor fit]"
Cc1ccc(Cl)cc1N1CCN(C(=O)c2cccn2-c2nnc(N3CCCC3)s2)CC1,AC50,[1],"31.6 µM [falling, single point]"
CC(C)(C)OC(=O)N1CCC(c2c(C(=O)NCc3ccc4c(c3)OCO4)cnn2-c2ccccc2Cl)CC1,AC50,[1],"15.8 µM [falling, partial curve]"
COc1ccc(C(=O)Nc2nnc(S(=O)(=O)N(CC(C)C)c3ccccc3)s2)cc1,AC50,[1],"0.631 µM [rising, full curve]"
CCc1ccc2oc(-c3cc(N)cc(C)c3O)nc2c1,AC50,[1],"1.26 µM [falling, full curve]"
Cc1ccc(Cn2c(C(=O)O)c(CNCc3cccs3)c3ccc(C)cc32)cc1,AC50,[1],"15.8 µM [falling, partial curve]"
COc1cc(-c2nnn(CC(=O)NC3CCS(=O)(=O)C3)n2)ccc1OCc1ccccc1 (configuration not stated),AC50,[1],"0.398 µM [falling, partial curve]"
CCOC(=O)c1c(NC(=O)c2ccc(S(=O)(=O)N3CCCC(C)C3)cc2)sc2c1CCN(C(C)C)C2 (configuration not stated),AC50,[1],"31.6 µM [falling, partial curve]"

# Reprinted at random: 2 records from the list
compound,measurement,setting,value
CC1CCN(c2nc3ccccc3nc2C(F)(F)F)CC1,AC50,[1],"7.94 µM [rising, partial curve]"
CCc1ccc2oc(-c3cc(N)cc(C)c3O)nc2c1,AC50,[1],"1.26 µM [falling, full curve]"
